This test has as its target N-Myc down regulated gene 4 (NDRG4) (human (endogenous in IOMM-Lee and CH-157 MN)) (UniProt Q9ULP0). Description: co-IP; 400 ug lysate of untransduced, control shRNA and shNDRG4 transduced IOMM-Lee and CH-157 MN cells; NDRG4 antibody (2 ug) overnight at 4°C, protein G magnetic beads; immunoblotted for p53 and NDRG4.

By UniProt entry, the sequences of proteins in these tests, tags left out.
UniProt Q9ULP0: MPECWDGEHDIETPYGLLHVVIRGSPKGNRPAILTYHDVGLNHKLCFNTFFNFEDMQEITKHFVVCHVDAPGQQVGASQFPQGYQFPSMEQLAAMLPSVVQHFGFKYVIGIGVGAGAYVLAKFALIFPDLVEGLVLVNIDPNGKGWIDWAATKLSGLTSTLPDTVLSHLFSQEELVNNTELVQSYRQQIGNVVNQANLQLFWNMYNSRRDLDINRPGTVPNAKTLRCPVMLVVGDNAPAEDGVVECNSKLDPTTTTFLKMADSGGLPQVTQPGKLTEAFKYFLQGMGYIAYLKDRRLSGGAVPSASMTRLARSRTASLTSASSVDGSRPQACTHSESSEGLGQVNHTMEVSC

Results are given in words; binding and its absence hold for the method and conditions named. In cells and extracts the contact can be indirect. Some binding calls cover weakened binding; strength is not graded here.

With p53 (from UniProt P04637 1-393), the binding result was “binds”.

For the origin of these results see article PMC4627331.
